Laboratory results reported in PubChem BioAssay AID1487 (National Center for Advancing Translational Sciences (NCATS), 2009).
The list shows a part of the results. Shown are side measurements of this screen, not its main read-out; they come without a call. Compounds called inactive in the main read-out are mostly missing here. Words in brackets tell the shape of the fitted curve; partial curves, single points and poor fits give uncertain potencies.

Assay: qHTS Assay for Modulators of Lamin A Splicing
Conditions: HeLa LMNA splicing GFP/RFP minigene ratio, 48 h
Summary of the method: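 S3 HeLa stable clones carrying a lamin A-EGFP splicing minigene plus DsRed2 were seeded at 600 cells/well in Opti-MEM with 2% FBS, pin-dosed and incubated 48 h at 37°C. Acumen cytometry (488 nm) gave the GFP/RFP total-intensity ratio.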

[1] = measured here: GFP splicing reporter channel
[2] = measured here: RFP viability control channel

O=c1oc2ccccc2c(Cl)c1CN1CCCCC1
AC50 [1]: 1.41 µM [falling, partial curve, poor fit]
AC50 [2]: 0.708 µM [falling, partial curve]

COc1cccc(/C=N/Nc2nc(Nc3ccccc3)nc(-n3nc(C)cc3C)n2)c1O
AC50 [2]: 14.1 µM [rising, single point]

CCN1C(=O)C(CC(=O)Nc2cccc(C(C)=O)c2)S/C1=N\c1ccccn1 (stereo unspecified)
AC50 [1]: 10 µM [rising, single point]
AC50 [2]: 11.2 µM [rising, single point]

Cc1cccn2cc(COc3cccc([N+](=O)[O-])c3)nc12
AC50 [1]: 35.5 µM [falling, single point]
AC50 [2]: 11.2 µM [falling, partial curve, poor fit]

O=c1ccn(-c2ccccc2)[nH]1
AC50 [1]: 35.5 µM [rising, partial curve, poor fit]

CCOC(=O)N1CCN(C(=O)c2ccc(Cn3c(=S)[nH]c4cc5c(cc4c3=O)OCO5)cc2)CC1
AC50 [2]: 14.1 µM [rising, partial curve]

CCOc1ccc(-n2c(-c3ccc(OC)cc3)c[n+]3c2CCCCC3)cc1
AC50 [2]: 0.708 µM [rising, full curve, poor fit]

CCOC(=O)CNC(=O)CNC(=O)c1nn(-c2ccc(OC)c(Cl)c2)c(=O)c2ccccc12
AC50 [1]: 35.5 µM [rising, single point]

Cc1ccc(C)c(S(=O)(=O)N2CCC(c3nc4c(nnn4Cc4ccc(F)cc4)c(=O)[nH]3)CC2)c1
AC50 [1]: 35.5 µM [falling, single point]
AC50 [2]: 25.1 µM [falling, single point]

COC(=O)c1ccccc1NC(=O)/C=C/c1ccco1
AC50 [1]: 17.8 µM [falling, single point]

Cc1ccc2c(c1)C1OCCC1C1N2C(=O)C2C(C(=O)O)C3C=CC21O3 (stereo unspecified)
AC50 [2]: 35.5 µM [rising, partial curve]

Clc1ccc(OCCSc2ncccn2)c2ccccc12
AC50 [1]: 0.251 µM [rising, full curve, poor fit]
AC50 [2]: 14.1 µM [rising, partial curve]

COc1cccc(CNC(=O)c2ccc(NC(=O)N3CCCCc4ccccc43)cc2)c1
AC50 [1]: 0.01 µM [falling, full curve, poor fit]
AC50 [2]: 0.00501 µM [falling, full curve, poor fit]

COc1cc2c(cc1OC)n(CC(=O)c1ccc(F)cc1)c(=O)n1nc(CCn3nc(C)cc3C)nc21
AC50 [1]: 7.94 µM [rising, partial curve, poor fit]
AC50 [2]: 14.1 µM [rising, partial curve]
